Earlier results as cited in patent US9630929B2, “Benzenesulfonamide compounds and their use as therapeutic agents” (XENON PHARMACEUTICALS INC., priority 2011, dated 2017).

Conditions: lidocaine administered topically (Lidoderm patch); cited from earlier work

SMILES: CCN(CC)CC(=O)Nc1c(C)cccc1C [lidocaine]
- plasma concentrations: about 1 μM
